From PMC5472185

Target: PfCyc1 two-hybrid bait (Plasmodium falciparum)
Assay: two-hybrid; pGBKT7 bait in PJ69-4alpha mated with pGADT7 prey in PJ69-4a; diploids plated onto medium lacking leucine, tryptophan, histidine and adenine

binding: binds
B1: PfMRK-AD (protein, UniProt P90584 1-324)
chain: MENNSTERYIFKPNFLGEGSYGKVYKAYDTILKKEVAIKKMKLNEISNYIDDCGINFVLLREIKIMKEIKHKNIMSALDLYCEKDYINLVMEIMDYDLSKIINRKIFLTDSQKKCILLQILNGLNVLHKYYFMHRDLSPANIFINKKGEVKLADFGLCTKYGYDMYSDKLFRDKYKKNLNLTSKVVTLWYRAPELLLGSNKYNSSIDMWSFGCIFAELLLQKALFPGENEIDQLGKIFFLLGTPNENNWPEALCLPLYTEFTKATKKDFKTYFKIDDDDCIDLLTSFLKLNAHERISAEDAMKHRYFFNDPLPCDISQLPFNDL

Results are given in words; binding and its absence hold for the method and conditions named. Binding calls can cover weak binding; strength is not graded here. Where a sequence is shown, tags or fusion partners need not be part of it.
